Measurements reported in patent US8548786B2, “Neuronal avalanche assay” (priority 2005, dated 2013).
Counter-ions that a name gives are not always drawn. At least one structure is not confirmed: it was looked up by name or label, or the drawing left a doubt.

Test system: acute slices of rat medial prefrontal cortex (mPFC)
Assay: Neuronal avalanche (NAS) assay, microelectrode array LFP recording in acute mPFC slices;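 further: 60-electrode array recordings, low-pass filtered at 200 Hz and sampled at 1 kHz, nLFPs detected below −3 SD of electrode noise, avalanches as runs of active bins between silent bins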

Row | Structure (SMILES) | avalanche induction by dopamine and NMDA in presence of antagonist (10 μM SCH23390 with 30 μM dopamine and NMDA, n=8) | cortical layer localisation of induced LFP activity (clozapine 100 nM)
1 | CN1CCc2cc(Cl)c(O)cc2[C@@H](c2ccccc2)C1 (racemic) [SCH23390, R(±)-7-chloro-8-hydroxy-3-methyl-1-phenyl-2,3,4,5-tetrahydro-1H-3-benzazepine hydrochloride] | completely blocked | 
2 | CN1CCN(C2=Nc3cc(Cl)ccc3Nc3ccccc32)CC1 [Clozapine, clozapine] |  | in superficial cortical layers only
